Reference: article PMC3351392
These are yes or no findings as the source states them, for the method shown. In cells and extracts the contact can be indirect. Some entries that bind do so weakly or less than the wild type. For some assays here: Tags and fused reporters may be left off the sequences shown.

By UniProt entry, the sequences of proteins in these tests, tags left out.
UniProt Q03173: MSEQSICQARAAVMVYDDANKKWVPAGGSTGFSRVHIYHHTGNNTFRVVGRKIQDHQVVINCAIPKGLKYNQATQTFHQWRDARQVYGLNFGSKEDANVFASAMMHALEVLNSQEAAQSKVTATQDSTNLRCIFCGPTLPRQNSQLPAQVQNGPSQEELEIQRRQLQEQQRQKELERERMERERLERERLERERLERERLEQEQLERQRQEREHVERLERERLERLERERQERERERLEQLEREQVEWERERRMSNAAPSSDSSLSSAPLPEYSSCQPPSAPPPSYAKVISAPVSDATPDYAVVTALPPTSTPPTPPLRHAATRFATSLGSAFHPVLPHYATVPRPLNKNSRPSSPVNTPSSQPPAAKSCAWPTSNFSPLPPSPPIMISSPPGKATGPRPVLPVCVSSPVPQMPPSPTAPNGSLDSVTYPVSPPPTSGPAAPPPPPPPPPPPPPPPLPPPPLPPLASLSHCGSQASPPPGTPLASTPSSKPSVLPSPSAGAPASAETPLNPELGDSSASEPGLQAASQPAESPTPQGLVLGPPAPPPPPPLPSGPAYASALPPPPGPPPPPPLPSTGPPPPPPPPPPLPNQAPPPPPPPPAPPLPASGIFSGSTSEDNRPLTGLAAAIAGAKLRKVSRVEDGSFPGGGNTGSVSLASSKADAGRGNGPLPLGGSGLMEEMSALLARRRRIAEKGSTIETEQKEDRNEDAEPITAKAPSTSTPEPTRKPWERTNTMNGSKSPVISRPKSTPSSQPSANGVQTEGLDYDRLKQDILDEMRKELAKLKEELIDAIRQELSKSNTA

T1: WAVE1, endogenous in brain extract (rat (endogenous in rat brain extract, legend) or mouse (endogenous in mouse brain extracts, text)) (UniProt Q8R5H6)
T1 sequence: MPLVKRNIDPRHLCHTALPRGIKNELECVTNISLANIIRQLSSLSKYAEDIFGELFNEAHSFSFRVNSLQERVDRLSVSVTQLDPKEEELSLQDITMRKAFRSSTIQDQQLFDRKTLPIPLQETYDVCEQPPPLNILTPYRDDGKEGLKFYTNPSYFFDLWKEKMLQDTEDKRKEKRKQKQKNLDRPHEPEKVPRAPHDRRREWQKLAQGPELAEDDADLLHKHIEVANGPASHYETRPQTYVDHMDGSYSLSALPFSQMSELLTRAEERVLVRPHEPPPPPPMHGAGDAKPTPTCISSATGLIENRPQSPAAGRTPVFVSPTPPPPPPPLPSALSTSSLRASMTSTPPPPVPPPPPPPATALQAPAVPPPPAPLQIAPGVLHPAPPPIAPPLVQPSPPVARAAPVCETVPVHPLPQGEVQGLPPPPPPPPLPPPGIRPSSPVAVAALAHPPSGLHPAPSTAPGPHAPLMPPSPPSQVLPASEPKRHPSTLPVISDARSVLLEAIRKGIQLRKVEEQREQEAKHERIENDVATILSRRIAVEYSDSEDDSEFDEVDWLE


How the values were obtained:
[1] = molecular target: T1, WAVE1, endogenous in brain extract (rat (endogenous in rat brain extract, legend) or mouse (endogenous in mouse brain extracts, text)); experiment: co-IP; reciprocal co-immunoprecipitation of endogenous proteins from brain extract, Western blotting
[2] = molecular target: WAVE1, full-length, co-expressed for the co-immunoprecipitations with Amph and Gas7 (Figure 4E-F) (UniProt Q92558); experiment: co-IP; co-expression of tagged proteins in cells, immunoprecipitation from pre-cleared lysates, Western blotting

binding [1] | binding [2] | Molecule
binds |  | Enah, endogenous in brain extract (from UniProt Q03173 1-802)
 | binds | Myc-Amph (Amphiphysin, full-length) (protein, UniProt P49418 1-695) MADIKTGIFAKNVQKRLNRAQEKVLQKLGKADETKDEQFEEYVQNFKRQEAEGTRLQRELRGYLAAIKGMQEASMKLTESLHEVYEPDWYGREDVKMVGEKCDVLWEDFHQKLVDGSLLTLDTYLGQFPDIKNRIAKRSRKLVDYDSARHHLEALQSSKRKDESRISKAEEEFQKAQKVFEEFNVDLQEELPSLWSRRVGFYVNTFKNVSSLEAKFHKEIAVLCHKLYEVMTKLGDQHADKAFTIQGAPSDSGPLRIAKTPSPPEEPSPLPSPTASPNHTLAPASPAPARPRSPSQTRKGPPVPPLPKVTPTKELQQENIISFFEDNFVPEISVTTPSQNEVPEVKKEETLLDLDFDPFKPEVTPAGSAGVTHSPMSQTLPWDLWTTSTDLVQPASGGSFNGFTQPQDTSLFTMQTDQSMICNLAESEQAPPTEPKAEEPLAAVTPAVGLDLGMDTRAEEPVEEAVIIPGADADAAVGTLVSAAEGAPGEEAEAEKATVPAGEGVSLEEAKIGTETTEGAESAQPEAEELEATVPQEKVIPSVVIEPASNHEEEGENEITIGAEPKETTEDAAPPGPTSETPELATEQKPIQDPQPTPSAPAMGAADQLASAREASQELPPGFLYKVETLHDFEAANSDELTLQRGDVVLVVPSDSEADQDAGWLVGVKESDWLQYRDLATYKGLFPENFTRRLD
